Reference: article PMC11237466
These are yes or no findings as the source states them, for the method shown. Binding seen in cells or lysates may run through a third protein. Here binding means that the protein was enriched with, or labelled near, the bait; the list need not be complete.

Sequences of proteins named here, by UniProt entry; tags and fusion partners are left off.
UniProt P0DTD2: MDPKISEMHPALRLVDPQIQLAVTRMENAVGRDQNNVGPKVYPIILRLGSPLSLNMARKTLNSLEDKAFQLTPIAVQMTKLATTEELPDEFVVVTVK
UniProt Q7Z6Z7: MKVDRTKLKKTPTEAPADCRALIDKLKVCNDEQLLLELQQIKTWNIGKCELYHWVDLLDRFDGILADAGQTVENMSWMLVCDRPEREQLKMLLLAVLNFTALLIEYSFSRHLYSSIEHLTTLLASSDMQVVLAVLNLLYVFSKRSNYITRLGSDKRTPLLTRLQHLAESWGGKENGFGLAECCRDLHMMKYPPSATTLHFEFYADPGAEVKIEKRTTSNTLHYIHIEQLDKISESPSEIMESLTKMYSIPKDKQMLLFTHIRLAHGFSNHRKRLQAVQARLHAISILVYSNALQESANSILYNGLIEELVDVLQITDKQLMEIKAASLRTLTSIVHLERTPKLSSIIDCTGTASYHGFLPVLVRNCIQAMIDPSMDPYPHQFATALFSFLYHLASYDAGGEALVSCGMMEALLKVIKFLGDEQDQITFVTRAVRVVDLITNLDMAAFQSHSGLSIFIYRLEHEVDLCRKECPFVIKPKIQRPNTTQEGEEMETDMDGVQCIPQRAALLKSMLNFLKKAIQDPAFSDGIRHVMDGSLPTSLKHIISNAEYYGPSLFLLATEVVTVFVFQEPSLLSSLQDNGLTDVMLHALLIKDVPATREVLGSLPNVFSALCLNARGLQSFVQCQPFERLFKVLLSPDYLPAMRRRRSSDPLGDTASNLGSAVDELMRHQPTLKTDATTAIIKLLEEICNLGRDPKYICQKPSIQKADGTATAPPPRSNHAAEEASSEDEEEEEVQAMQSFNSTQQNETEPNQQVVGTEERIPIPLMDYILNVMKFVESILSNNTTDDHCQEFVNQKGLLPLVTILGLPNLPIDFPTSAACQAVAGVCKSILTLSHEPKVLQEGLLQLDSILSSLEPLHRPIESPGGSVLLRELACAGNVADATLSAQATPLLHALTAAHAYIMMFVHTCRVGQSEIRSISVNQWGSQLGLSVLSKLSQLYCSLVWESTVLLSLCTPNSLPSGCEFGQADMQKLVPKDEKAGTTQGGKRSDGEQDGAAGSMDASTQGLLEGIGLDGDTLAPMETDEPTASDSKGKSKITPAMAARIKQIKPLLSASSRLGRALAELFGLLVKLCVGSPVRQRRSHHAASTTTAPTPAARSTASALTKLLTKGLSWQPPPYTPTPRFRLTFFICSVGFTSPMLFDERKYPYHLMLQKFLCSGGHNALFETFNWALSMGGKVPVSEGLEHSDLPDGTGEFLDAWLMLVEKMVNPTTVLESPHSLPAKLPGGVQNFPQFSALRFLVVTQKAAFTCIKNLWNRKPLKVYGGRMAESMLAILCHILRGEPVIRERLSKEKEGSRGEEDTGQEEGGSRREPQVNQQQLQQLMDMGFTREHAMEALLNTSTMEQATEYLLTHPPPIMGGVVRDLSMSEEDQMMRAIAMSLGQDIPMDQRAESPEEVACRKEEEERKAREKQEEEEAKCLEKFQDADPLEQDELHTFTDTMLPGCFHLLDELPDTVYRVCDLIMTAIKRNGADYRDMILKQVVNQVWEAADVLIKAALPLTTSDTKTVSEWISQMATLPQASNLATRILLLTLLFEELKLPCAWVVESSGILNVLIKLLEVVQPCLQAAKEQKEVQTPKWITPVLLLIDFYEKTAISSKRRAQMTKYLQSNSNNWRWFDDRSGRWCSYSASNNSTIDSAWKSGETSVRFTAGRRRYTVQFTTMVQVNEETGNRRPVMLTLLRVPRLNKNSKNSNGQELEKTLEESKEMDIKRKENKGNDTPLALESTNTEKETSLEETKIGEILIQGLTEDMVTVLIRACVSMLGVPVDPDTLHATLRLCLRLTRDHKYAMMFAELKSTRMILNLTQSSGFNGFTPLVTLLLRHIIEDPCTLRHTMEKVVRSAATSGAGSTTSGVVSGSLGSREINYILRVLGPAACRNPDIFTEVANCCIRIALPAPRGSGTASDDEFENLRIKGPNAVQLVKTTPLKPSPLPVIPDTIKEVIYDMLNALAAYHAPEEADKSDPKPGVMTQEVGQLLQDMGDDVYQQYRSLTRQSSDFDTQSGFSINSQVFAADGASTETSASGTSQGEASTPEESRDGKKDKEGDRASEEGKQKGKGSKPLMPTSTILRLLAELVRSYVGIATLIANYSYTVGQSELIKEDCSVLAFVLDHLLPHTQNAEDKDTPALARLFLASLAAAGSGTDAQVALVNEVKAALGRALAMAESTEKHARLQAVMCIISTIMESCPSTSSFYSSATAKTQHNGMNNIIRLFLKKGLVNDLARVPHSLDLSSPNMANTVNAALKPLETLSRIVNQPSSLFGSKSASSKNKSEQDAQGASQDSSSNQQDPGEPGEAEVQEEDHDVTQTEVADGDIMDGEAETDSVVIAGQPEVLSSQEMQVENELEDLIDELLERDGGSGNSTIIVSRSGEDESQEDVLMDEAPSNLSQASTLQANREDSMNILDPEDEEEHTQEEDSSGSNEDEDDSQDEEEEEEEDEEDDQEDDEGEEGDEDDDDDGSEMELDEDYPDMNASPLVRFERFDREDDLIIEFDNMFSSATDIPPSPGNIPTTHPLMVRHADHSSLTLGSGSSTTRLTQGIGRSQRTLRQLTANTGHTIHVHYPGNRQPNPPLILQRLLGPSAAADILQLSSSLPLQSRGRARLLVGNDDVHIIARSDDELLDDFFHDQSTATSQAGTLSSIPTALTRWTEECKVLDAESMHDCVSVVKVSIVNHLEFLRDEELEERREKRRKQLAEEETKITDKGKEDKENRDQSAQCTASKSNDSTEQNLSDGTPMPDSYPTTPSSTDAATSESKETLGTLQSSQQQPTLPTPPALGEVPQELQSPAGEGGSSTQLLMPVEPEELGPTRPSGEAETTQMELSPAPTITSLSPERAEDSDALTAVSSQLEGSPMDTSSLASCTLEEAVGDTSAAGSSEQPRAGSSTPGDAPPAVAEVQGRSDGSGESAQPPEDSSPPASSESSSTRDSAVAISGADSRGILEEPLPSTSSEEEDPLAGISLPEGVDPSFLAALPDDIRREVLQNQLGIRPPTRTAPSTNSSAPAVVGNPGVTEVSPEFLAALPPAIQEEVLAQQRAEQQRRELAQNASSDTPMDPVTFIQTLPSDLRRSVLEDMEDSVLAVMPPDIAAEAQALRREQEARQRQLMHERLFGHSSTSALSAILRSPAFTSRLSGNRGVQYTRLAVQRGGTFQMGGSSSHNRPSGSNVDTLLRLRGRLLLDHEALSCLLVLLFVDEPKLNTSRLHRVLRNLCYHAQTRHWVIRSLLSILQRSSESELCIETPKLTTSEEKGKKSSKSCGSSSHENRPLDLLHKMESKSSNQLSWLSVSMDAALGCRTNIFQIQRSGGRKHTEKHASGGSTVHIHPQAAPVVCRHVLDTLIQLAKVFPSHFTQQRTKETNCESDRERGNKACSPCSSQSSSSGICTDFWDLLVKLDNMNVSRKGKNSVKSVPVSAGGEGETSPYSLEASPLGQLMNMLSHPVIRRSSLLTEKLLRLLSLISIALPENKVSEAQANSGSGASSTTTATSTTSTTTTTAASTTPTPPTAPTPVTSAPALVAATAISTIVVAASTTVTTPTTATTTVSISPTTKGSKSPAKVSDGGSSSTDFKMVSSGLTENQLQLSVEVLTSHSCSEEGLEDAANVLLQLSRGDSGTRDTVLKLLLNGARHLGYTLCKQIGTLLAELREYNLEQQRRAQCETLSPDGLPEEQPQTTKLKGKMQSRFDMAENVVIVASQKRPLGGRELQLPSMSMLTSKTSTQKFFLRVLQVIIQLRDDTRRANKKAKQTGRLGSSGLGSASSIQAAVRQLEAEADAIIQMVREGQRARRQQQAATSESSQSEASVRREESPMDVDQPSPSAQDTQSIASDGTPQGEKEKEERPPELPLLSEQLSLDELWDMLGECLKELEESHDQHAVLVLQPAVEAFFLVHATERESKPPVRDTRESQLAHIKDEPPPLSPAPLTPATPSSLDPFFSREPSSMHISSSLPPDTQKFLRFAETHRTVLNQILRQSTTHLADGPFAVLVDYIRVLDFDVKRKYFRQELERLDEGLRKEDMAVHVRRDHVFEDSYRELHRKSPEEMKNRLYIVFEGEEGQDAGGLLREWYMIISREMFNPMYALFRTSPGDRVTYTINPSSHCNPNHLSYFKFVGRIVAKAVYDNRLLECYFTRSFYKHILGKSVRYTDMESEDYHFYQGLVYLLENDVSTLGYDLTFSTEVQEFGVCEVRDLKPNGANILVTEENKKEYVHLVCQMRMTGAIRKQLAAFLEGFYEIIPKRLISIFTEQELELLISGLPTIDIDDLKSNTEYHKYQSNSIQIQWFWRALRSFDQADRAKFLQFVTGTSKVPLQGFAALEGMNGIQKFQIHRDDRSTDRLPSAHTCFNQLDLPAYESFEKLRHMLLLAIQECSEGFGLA

Molecular target: SARS-CoV-2 ORF9b-hemagglutinin (ORF9b-HA) (SARS-CoV-2) (UniProt P0DTD2)
Experiment: affinity purification with mass spectrometry

“HECT, UBA, and WWE domain-containing E3 ubiquitin protein ligase 1 (HUWE1), endogenous (from UniProt Q7Z6Z7 1-4374) (enzyme)” was tested, and the binding was “binds”.
